Publication PMC6443681
These are yes or no findings as the source states them, for the method shown. For some of these results: Binding seen in cells or lysates may run through a third protein. Some binding calls cover weakened binding; strength is not graded here. Tags and fused reporters may be left off the sequences shown.

How the values were obtained:
[1] = target: T1, OsPT2 (rice homologue of OsPT8), yeast two-hybrid fusion (rice) (UniProt Q8GSD9); assay: two-hybrid; yeast strain Mav203, AD vector pPC86 and BD vector pDBLeu; OsPT8 as bait against the rice NPB cDNA library, then confirmed; growth on SD-Leu-Trp-His with 35 mM 3'AT
T1 sequence: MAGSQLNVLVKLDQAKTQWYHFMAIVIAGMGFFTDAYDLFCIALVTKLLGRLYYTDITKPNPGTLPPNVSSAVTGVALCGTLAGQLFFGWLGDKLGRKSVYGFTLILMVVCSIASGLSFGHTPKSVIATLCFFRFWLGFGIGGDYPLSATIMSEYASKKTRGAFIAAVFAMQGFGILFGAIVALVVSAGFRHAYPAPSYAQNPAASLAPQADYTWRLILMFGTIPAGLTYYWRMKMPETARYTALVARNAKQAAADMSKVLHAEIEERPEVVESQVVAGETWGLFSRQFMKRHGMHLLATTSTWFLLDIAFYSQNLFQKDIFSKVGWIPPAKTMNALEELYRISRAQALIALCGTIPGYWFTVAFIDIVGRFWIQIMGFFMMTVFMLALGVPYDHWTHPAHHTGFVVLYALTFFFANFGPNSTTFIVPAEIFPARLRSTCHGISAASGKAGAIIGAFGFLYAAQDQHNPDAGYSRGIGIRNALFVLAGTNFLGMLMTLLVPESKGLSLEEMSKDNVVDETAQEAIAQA

[2] = target: T2, OsPT8 (rice phosphate transporter, Pht1 family), yeast two-hybrid fusion (rice (Oryza sativa, Nipponbare)) (UniProt Q8H6G8); assay: as above
T2 sequence: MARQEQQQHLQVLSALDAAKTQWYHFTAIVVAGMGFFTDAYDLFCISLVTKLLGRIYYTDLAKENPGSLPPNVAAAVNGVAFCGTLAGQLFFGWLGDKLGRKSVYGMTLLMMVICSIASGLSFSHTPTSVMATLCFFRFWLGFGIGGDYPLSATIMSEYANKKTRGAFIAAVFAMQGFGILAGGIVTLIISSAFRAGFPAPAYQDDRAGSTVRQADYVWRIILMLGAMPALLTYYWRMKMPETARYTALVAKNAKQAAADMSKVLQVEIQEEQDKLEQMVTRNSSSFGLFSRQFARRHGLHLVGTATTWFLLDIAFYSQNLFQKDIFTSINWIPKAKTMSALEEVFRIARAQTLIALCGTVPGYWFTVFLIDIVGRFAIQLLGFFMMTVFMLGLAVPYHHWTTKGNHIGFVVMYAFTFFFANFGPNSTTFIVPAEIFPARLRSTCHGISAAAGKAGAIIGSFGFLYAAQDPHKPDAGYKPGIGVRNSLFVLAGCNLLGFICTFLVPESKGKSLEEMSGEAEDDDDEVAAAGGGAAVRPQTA

[3] = target: T3, BWMK1: GST fusion protein (rice (Oryza sativa, Nipponbare)) (UniProt Q5Z9J0); assay: pull-down; 10 ug OsPT8:MBP mixed with 10 ug BWMK1:GST, glutathione sepharose beads, 4 h at 4 C, five washes with 1x TBST, Western blot with anti-MBP or anti-GST; both purified
T3 sequence: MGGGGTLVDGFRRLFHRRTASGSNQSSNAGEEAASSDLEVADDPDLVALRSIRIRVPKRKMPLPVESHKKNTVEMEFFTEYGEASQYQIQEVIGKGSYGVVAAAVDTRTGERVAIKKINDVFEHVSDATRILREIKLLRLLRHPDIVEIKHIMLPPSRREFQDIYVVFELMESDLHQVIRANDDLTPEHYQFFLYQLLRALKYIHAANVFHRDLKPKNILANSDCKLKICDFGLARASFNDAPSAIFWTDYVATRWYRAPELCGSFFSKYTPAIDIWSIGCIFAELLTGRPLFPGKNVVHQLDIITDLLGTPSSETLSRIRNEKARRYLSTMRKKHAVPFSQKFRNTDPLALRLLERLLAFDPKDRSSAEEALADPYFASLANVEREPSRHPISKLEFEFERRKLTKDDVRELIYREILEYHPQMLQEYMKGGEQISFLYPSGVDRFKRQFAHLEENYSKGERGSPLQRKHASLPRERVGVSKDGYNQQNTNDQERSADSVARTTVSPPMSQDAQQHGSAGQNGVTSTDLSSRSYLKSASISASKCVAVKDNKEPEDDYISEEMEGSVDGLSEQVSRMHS

[4] = target: T4, OsPT8-Cluc (rice (Oryza sativa, Nipponbare)) (UniProt Q8H6G8); assay: split reporter; firefly luciferase complementation imaging (LCI) in N. benthamiana leaves, co-infiltrated with p19, 26 C dark 48 h
T4 sequence: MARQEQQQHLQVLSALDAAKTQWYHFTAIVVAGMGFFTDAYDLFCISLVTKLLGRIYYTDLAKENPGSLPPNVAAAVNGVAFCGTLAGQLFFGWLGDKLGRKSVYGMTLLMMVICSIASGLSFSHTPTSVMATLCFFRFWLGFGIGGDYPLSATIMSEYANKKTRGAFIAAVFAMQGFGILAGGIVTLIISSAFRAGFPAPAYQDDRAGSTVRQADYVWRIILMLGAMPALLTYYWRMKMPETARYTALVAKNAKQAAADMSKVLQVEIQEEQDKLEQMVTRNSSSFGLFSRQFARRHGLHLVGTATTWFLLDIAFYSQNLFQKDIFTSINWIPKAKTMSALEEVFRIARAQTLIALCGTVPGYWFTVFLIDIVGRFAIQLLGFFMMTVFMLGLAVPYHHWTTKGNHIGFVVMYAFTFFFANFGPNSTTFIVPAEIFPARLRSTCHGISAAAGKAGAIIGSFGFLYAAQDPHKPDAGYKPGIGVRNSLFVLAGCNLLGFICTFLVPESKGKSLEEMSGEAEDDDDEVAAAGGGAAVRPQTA

B1: BWMK1 (rice mitogen-activated protein kinase), yeast two-hybrid fusion (protein, UniProt Q5Z9J0 1-580)
chain: MGGGGTLVDGFRRLFHRRTASGSNQSSNAGEEAASSDLEVADDPDLVALRSIRIRVPKRKMPLPVESHKKNTVEMEFFTEYGEASQYQIQEVIGKGSYGVVAAAVDTRTGERVAIKKINDVFEHVSDATRILREIKLLRLLRHPDIVEIKHIMLPPSRREFQDIYVVFELMESDLHQVIRANDDLTPEHYQFFLYQLLRALKYIHAANVFHRDLKPKNILANSDCKLKICDFGLARASFNDAPSAIFWTDYVATRWYRAPELCGSFFSKYTPAIDIWSIGCIFAELLTGRPLFPGKNVVHQLDIITDLLGTPSSETLSRIRNEKARRYLSTMRKKHAVPFSQKFRNTDPLALRLLERLLAFDPKDRSSAEEALADPYFASLANVEREPSRHPISKLEFEFERRKLTKDDVRELIYREILEYHPQMLQEYMKGGEQISFLYPSGVDRFKRQFAHLEENYSKGERGSPLQRKHASLPRERVGVSKDGYNQQNTNDQERSADSVARTTVSPPMSQDAQQHGSAGQNGVTSTDLSSRSYLKSASISASKCVAVKDNKEPEDDYISEEMEGSVDGLSEQVSRMHS
- binding [1]: no binding
- binding [2]: binds

B2: OsPT8: MBP fusion protein (protein, UniProt Q8H6G8 1-541)
chain: MARQEQQQHLQVLSALDAAKTQWYHFTAIVVAGMGFFTDAYDLFCISLVTKLLGRIYYTDLAKENPGSLPPNVAAAVNGVAFCGTLAGQLFFGWLGDKLGRKSVYGMTLLMMVICSIASGLSFSHTPTSVMATLCFFRFWLGFGIGGDYPLSATIMSEYANKKTRGAFIAAVFAMQGFGILAGGIVTLIISSAFRAGFPAPAYQDDRAGSTVRQADYVWRIILMLGAMPALLTYYWRMKMPETARYTALVAKNAKQAAADMSKVLQVEIQEEQDKLEQMVTRNSSSFGLFSRQFARRHGLHLVGTATTWFLLDIAFYSQNLFQKDIFTSINWIPKAKTMSALEEVFRIARAQTLIALCGTVPGYWFTVFLIDIVGRFAIQLLGFFMMTVFMLGLAVPYHHWTTKGNHIGFVVMYAFTFFFANFGPNSTTFIVPAEIFPARLRSTCHGISAAAGKAGAIIGSFGFLYAAQDPHKPDAGYKPGIGVRNSLFVLAGCNLLGFICTFLVPESKGKSLEEMSGEAEDDDDEVAAAGGGAAVRPQTA
- binding [3]: binds

B3: BWMK1-Nluc (protein, UniProt Q5Z9J0 1-580)
chain: MGGGGTLVDGFRRLFHRRTASGSNQSSNAGEEAASSDLEVADDPDLVALRSIRIRVPKRKMPLPVESHKKNTVEMEFFTEYGEASQYQIQEVIGKGSYGVVAAAVDTRTGERVAIKKINDVFEHVSDATRILREIKLLRLLRHPDIVEIKHIMLPPSRREFQDIYVVFELMESDLHQVIRANDDLTPEHYQFFLYQLLRALKYIHAANVFHRDLKPKNILANSDCKLKICDFGLARASFNDAPSAIFWTDYVATRWYRAPELCGSFFSKYTPAIDIWSIGCIFAELLTGRPLFPGKNVVHQLDIITDLLGTPSSETLSRIRNEKARRYLSTMRKKHAVPFSQKFRNTDPLALRLLERLLAFDPKDRSSAEEALADPYFASLANVEREPSRHPISKLEFEFERRKLTKDDVRELIYREILEYHPQMLQEYMKGGEQISFLYPSGVDRFKRQFAHLEENYSKGERGSPLQRKHASLPRERVGVSKDGYNQQNTNDQERSADSVARTTVSPPMSQDAQQHGSAGQNGVTSTDLSSRSYLKSASISASKCVAVKDNKEPEDDYISEEMEGSVDGLSEQVSRMHS
- binding [4]: binds
